Data from doi:10.1101/701425.

Sequences of proteins named here, by UniProt entry; tags and fusion partners are left off.
UniProt F4J8D3: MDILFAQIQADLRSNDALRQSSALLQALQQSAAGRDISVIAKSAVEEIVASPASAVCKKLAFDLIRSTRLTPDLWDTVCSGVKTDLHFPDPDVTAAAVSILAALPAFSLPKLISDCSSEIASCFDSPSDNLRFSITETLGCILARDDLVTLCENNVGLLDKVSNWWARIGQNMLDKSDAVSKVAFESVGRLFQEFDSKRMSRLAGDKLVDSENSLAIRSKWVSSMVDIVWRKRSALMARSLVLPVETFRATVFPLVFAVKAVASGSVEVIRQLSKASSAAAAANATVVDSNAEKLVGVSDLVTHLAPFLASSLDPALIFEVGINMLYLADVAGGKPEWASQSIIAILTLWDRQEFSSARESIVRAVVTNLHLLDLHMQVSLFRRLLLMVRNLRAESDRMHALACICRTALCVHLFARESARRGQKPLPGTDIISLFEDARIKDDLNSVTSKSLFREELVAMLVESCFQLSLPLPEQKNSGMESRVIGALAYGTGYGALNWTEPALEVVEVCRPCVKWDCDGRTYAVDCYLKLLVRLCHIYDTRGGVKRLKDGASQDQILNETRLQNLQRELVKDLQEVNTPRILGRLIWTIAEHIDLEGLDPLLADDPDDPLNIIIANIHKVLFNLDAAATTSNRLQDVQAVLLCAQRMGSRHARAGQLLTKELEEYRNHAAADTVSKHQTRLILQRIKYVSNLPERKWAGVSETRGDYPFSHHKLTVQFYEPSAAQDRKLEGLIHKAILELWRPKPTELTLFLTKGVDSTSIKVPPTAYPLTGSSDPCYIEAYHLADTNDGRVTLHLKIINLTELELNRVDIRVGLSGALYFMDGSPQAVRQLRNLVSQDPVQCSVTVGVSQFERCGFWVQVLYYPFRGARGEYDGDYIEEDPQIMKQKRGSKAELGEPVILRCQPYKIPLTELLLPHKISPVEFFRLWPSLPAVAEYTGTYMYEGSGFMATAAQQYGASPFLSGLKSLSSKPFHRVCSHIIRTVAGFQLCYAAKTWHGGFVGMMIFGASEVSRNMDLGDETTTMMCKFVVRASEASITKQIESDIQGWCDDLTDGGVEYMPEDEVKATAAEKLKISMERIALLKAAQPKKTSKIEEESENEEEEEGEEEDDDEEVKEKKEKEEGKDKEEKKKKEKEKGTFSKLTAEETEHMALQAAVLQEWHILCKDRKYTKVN

Target: TPLATE-linkerTurboID (A. thaliana) (UniProt F4J8D3)
Experiment: proximity labelling

Binder	binding
Secretory Carrier Membrane Protein 5 (protein, UniProt Q9SXA5 1-291) MGGRYDRNTFDEQDEVNPFANPGSVPAASNSRLSPLPPEPAGFGYGRTVDIPLDRPGSGAQDLKKKEKELQAKEADLRRREQDLKRKQDAAARAGIVIEAKNWPTFFPLIHHDIANEILVRLQRLQYIAFATYLGLVLALFWNIIAVTTAWIKGEGVTIWLLAVIYFISGVPGGYVLWYRPLYRAFRSDSAFNFGWFFLFYMLHILFCLFAAVAPPIVFKGKSLAGILPAIDVLSAQALVGIFYFIGFGLFCLESVVSIWVIQQVYMYFRGSGKADDMRRDAARGAMRAAI	binds
TOL6 (protein, UniProt O80910 1-671) MASSSASATVAVDKATSDLLLGPDWTTNMEICDSVNSLHWQAKDVVKAVKKRLQHKSSRVQLLALTLLETLVKNCGDYLHHQVAEKNILGEMVKIVKKKADMQVRDKILVMVDSWQQAFGGPEGKYPQYYWAYDELRRSGVEFPRRSPDASPIITPPVSHPPLRQPQGGYGVPPAGYGVHQAGYGVPQAGYGIPQAGYGVPQAGYGIPQVGYGMPSGSSRRLDEAMATEVEGLSLSSIESMRDVMDLLGDMLQAVDPSDREAVKDEVIVDLVERCRSNQKKLMQMLTSTGDDELLGRGLDLNDSLQILLAKHDAIASGSPLPVQASGSPLSVQASKPADSSPKSSEAKDSSSIAGSSSPIPATVSTGKSPIDEEYEEEEDEFAQLARRHSKPPASVTTDPTSLESHNAASNALALALPDPPPPVNTTKEQDMIDLLSITLCTPSTPPAPSSQPSPPPPAGSDQNTHIYPQPQPRFDSYVAPWAQQQQPQQPQAQQGYSQHQQHQQQQGYSQPQHSQQQQGYSQLQQPQPQQGYSQSQPQAQVQMQPSTRPQNPYEYPPPPWASTSANAYYTPRANASASYTDTSALAGRSLQQSNSFPTRAGDPQATSTASNSGVSVGQKPFVPSYRLFEDLDVFGSADGKHNKPANSSNGSQNLSGSQTQQSMIGGRKMI	binds
TOL9 (protein, UniProt Q8L860 1-675) MVNAMVERATSEMLIGPDWAMNLEICDMLNSDPAQAKDVVKGIKKRIGSRNPKAQLLALTLLETIVKNCGDMVHMHVAEKGVIHEMVRIVKKKPDFHVKEKILVLIDTWQEAFGGPRARYPQYYAGYQELLRAGAVFPQRSERSAPVFTPPQTQPLTSYPPNLRNAGPGNDVPEPSAEPEFPTLSLSEIQNAKGIMDVLAEMLSALEPGNKEDLKQEVMVDLVEQCRTYKQRVVHLVNSTSDESLLCQGLALNDDLQRVLTNYEAIASGLPGTSSQIEKPKSETGKSLVDVDGPLIDTGDSSNQANGATSSSGNGVLNQLALPAPPVTNGSANSKIDLLSGDDLALVPVGPPQPASPVASDQNALALIDMFSDNTNNPSPATAPSGNPAQNIPLNPQGHQQPNSQAGEAGLQQSNGFAPQVGYSQFEQPSYGQGVSSPWSSQPAQQPVQPSYGAQDSTAFPPPPWEAQLQDYSPSAESGSPFSPGMHPTQTAFTHAQPVNNNNPYPQIPQTGPPVNNNSPYAQMPQTGQAVANISPYPQIPQNGVYMPNQPNQALGSGYQPQQQQQQQMMMAQYYAQQQQLQQQQQQQAYGNQMGGYGYGYNQQQQGSSPYLDQQMYGLSMRDQTSHQVASSSSTTSYLPPMKPKNKPEDKLFGDLVDISKFKPTKPTSGRAGTM	binds

No constants are given. Whether binding was seen depends on the method and setting. In cells and extracts the contact can be indirect. Here binding means that the protein was enriched with, or labelled near, the bait; the list need not be complete.
